Drawing on the supplement of paper PMC4635364, this text covers neuronal differentiation score for nine compounds.

Each structure is given as a SMILES string. Counter-ions that a name gives are not always drawn. The list shows a part of the results. Repeats in this data set agree poorly, so a single value says little.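 Human fetal ventral-midbrain neural progenitor line ReNCell VM, differentiated without mitogens. Images stained for doublecortin (early neurons) or tyrosine hydroxylase (dopaminergic neurons) were scored by blinded raters against untreated wells (0 = no change). Repeats and both raters were averaged, and compounds averaging 2 or higher were picked as hits for retesting.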

The assay concerns ReNCell VM. Kind of assay: neuronal differentiation score (DCX+ cell fraction vs untreated, manual image score) (score (-3 to 3)); higher = more neuronal differentiation. The conditions noted are these: library: LOPAC; 2 uM; 2 weeks.
For the compound `CN1[C@@H]2CC[C@H]1C[C@@H](OC(=O)C(CO)c1ccccc1)C2` (some centres undefined) [Atropine sulfate], the neuronal differentiation score is inactive: 0. The figure for `CCCN(CCC)C1CCc2ccc(O)cc2C1` (stereo not drawn) [R-(+)-7-Hydroxy-DPAT hydrobromide] is inactive: 0. The same measure for `COc1ccc2[nH]cc(CCN)c2c1` [O-Methylserotonin hydrochloride]: inactive: 0; for `CNC(=O)OCC[N+](C)(C)C` [Methylcarbamylcholine chloride]: inactive: 0; for `O=C(O)[C@@H]1[C@H](C(=O)O)[C@H]2CC[C@@H]1O2` [Endothall]: inactive: 0. Consider `COC(=O)[C@@H](N)CCCNC(=N)N[N+](=O)[O-]` [NG-Nitro-L-arginine methyl ester hydrochloride], for which the neuronal differentiation score is inactive: 0.

`CN1[C@@H]2CC[C@H]1C[C@@H](OC(=O)[C@H](CO)c1ccccc1)C2` [L-Hyoscyamine]: the neuronal differentiation score was inactive: 0.

For `O=C(O)Cc1cnc[nH]1` [Imidazole-4-acetic acid hydrochloride], the neuronal differentiation score was inactive: 0. The figure for `O=P1(N(CCCl)CCCl)NCCCO1` (centres undefined) [Cyclophosphamide monohydrate] is inactive: 0.
